Data as given in the supplement of paper PMC11546906.
Where a name gives a salt, the structure may show the parent alone. The list shows a part of the results. Single values are uncertain here, since repeats match poorly.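 Screen of FDA-approved drugs, each combined with colistin at one-eighth of its MIC, against a multidrug-resistant mcr-1-positive clinical E. coli isolate; growth read as OD600 after 24 h. Bacteria without drug were the growth control and plain broth the blank. A combination counted as active when OD600 fell below 0.2.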

test system: Escherichia coli 42 (mcr-1-positive clinical isolate); assay: OD600 after 24 h growth with compound plus colistin (absorbance units (OD600)); higher = more bacterial growth (less inhibition); details: first compound 25 µM; colistin concentration 0.5 ug/mL; incubation time 24 h; 37 °C

OD600, inactive:
CN1CCN(C2=Nc3ccccc3Oc3ccc(Cl)cc32)CC1 [Loxapine succinate] + CCC(C)CCCC(=O)N[C@@H](CCN)C(=O)N[C@H](C(=O)N[C@@H](CCN)C(=O)N[C@H]1CCNC(=O)[C@H]([C@@H](C)O)NC(=O)[C@H](CCN)NC(=O)[C@H](CCN)NC(=O)[C@H](CC(C)C)NC(=O)[C@@H](CC(C)C)NC(=O)[C@H](CCN)NC1=O)[C@@H](C)O [colistin] 0.734
CO[C@H]1C[C@@H]2CC[C@@H](C)[C@@](O)(O2)C(=O)C(=O)N2CCCC[C@H]2C(=O)O[C@H]([C@H](C)C[C@@H]2CC[C@@H](OC(=O)C(C)(CO)CO)[C@H](OC)C2)CC(=O)[C@H](C)/C=C(\C)[C@@H](O)[C@@H](OC)C(=O)[C@H](C)C[C@H](C)/C=C/C=C/C=C/1C [Temsirolimus] + CCC(C)CCCC(=O)N[C@@H](CCN)C(=O)N[C@H](C(=O)N[C@@H](CCN)C(=O)N[C@H]1CCNC(=O)[C@H]([C@@H](C)O)NC(=O)[C@H](CCN)NC(=O)[C@H](CCN)NC(=O)[C@H](CC(C)C)NC(=O)[C@@H](CC(C)C)NC(=O)[C@H](CCN)NC1=O)[C@@H](C)O [colistin] 0.914
COCCCC/C(=N\OCCN)c1ccc(C(F)(F)F)cc1 [Fluvoxamine maleate] + CCC(C)CCCC(=O)N[C@@H](CCN)C(=O)N[C@H](C(=O)N[C@@H](CCN)C(=O)N[C@H]1CCNC(=O)[C@H]([C@@H](C)O)NC(=O)[C@H](CCN)NC(=O)[C@H](CCN)NC(=O)[C@H](CC(C)C)NC(=O)[C@@H](CC(C)C)NC(=O)[C@H](CCN)NC1=O)[C@@H](C)O [colistin] 1.05
CCC(=O)O[C@]1(C(=O)SCF)[C@H](C)C[C@H]2[C@@H]3C[C@H](F)C4=CC(=O)C=C[C@]4(C)[C@@]3(F)[C@@H](O)C[C@@]21C [Fluticasone (propionate)] + CCC(C)CCCC(=O)N[C@@H](CCN)C(=O)N[C@H](C(=O)N[C@@H](CCN)C(=O)N[C@H]1CCNC(=O)[C@H]([C@@H](C)O)NC(=O)[C@H](CCN)NC(=O)[C@H](CCN)NC(=O)[C@H](CC(C)C)NC(=O)[C@@H](CC(C)C)NC(=O)[C@H](CCN)NC1=O)[C@@H](C)O [colistin] 1.01
OCCOCCN1CCN(C2=Nc3ccccc3Sc3ccccc32)CC1 [Quetiapine hemifumarate] + CCC(C)CCCC(=O)N[C@@H](CCN)C(=O)N[C@H](C(=O)N[C@@H](CCN)C(=O)N[C@H]1CCNC(=O)[C@H]([C@@H](C)O)NC(=O)[C@H](CCN)NC(=O)[C@H](CCN)NC(=O)[C@H](CC(C)C)NC(=O)[C@@H](CC(C)C)NC(=O)[C@H](CCN)NC1=O)[C@@H](C)O [colistin] 0.815
Cc1ccc(C(=O)Nc2ccc(CN3CCN(C)CC3)c(C(F)(F)F)c2)cc1C#Cc1cnc2cccnn12 [Ponatinib] + CCC(C)CCCC(=O)N[C@@H](CCN)C(=O)N[C@H](C(=O)N[C@@H](CCN)C(=O)N[C@H]1CCNC(=O)[C@H]([C@@H](C)O)NC(=O)[C@H](CCN)NC(=O)[C@H](CCN)NC(=O)[C@H](CC(C)C)NC(=O)[C@@H](CC(C)C)NC(=O)[C@H](CCN)NC1=O)[C@@H](C)O [colistin] 0.791
CC(=O)/N=c1/sc(S(N)(=O)=O)nn1C [Methazolamide] + CCC(C)CCCC(=O)N[C@@H](CCN)C(=O)N[C@H](C(=O)N[C@@H](CCN)C(=O)N[C@H]1CCNC(=O)[C@H]([C@@H](C)O)NC(=O)[C@H](CCN)NC(=O)[C@H](CCN)NC(=O)[C@H](CC(C)C)NC(=O)[C@@H](CC(C)C)NC(=O)[C@H](CCN)NC1=O)[C@@H](C)O [colistin] 1.04
NC(=O)N[C@@H](CCC(=O)O)C(=O)O [Carglumic Acid] + CCC(C)CCCC(=O)N[C@@H](CCN)C(=O)N[C@H](C(=O)N[C@@H](CCN)C(=O)N[C@H]1CCNC(=O)[C@H]([C@@H](C)O)NC(=O)[C@H](CCN)NC(=O)[C@H](CCN)NC(=O)[C@H](CC(C)C)NC(=O)[C@@H](CC(C)C)NC(=O)[C@H](CCN)NC1=O)[C@@H](C)O [colistin] 0.997
O=C1CN(/N=C/c2ccc(-c3ccc([N+](=O)[O-])cc3)o2)C(=O)N1 [Dantrolene] + CCC(C)CCCC(=O)N[C@@H](CCN)C(=O)N[C@H](C(=O)N[C@@H](CCN)C(=O)N[C@H]1CCNC(=O)[C@H]([C@@H](C)O)NC(=O)[C@H](CCN)NC(=O)[C@H](CCN)NC(=O)[C@H](CC(C)C)NC(=O)[C@@H](CC(C)C)NC(=O)[C@H](CCN)NC1=O)[C@@H](C)O [colistin] 1.07
